Measurements taken from US20230313199A1, “TARGET FOR MODULATING BODY MASS” (Massachusetts Institute of Technology, priority 2020, published 2023).
No constants are given. Whether binding was seen depends on the method and setting. Binding seen in cells or lysates may run through a third protein. Some results given as binding are weak or reduced against the parent protein; the word gives no strength. Sequences can lack the tags named with a protein.

Protein sequences, listed by entry. Tags and fused reporters are not part of them.
UniProt O55143: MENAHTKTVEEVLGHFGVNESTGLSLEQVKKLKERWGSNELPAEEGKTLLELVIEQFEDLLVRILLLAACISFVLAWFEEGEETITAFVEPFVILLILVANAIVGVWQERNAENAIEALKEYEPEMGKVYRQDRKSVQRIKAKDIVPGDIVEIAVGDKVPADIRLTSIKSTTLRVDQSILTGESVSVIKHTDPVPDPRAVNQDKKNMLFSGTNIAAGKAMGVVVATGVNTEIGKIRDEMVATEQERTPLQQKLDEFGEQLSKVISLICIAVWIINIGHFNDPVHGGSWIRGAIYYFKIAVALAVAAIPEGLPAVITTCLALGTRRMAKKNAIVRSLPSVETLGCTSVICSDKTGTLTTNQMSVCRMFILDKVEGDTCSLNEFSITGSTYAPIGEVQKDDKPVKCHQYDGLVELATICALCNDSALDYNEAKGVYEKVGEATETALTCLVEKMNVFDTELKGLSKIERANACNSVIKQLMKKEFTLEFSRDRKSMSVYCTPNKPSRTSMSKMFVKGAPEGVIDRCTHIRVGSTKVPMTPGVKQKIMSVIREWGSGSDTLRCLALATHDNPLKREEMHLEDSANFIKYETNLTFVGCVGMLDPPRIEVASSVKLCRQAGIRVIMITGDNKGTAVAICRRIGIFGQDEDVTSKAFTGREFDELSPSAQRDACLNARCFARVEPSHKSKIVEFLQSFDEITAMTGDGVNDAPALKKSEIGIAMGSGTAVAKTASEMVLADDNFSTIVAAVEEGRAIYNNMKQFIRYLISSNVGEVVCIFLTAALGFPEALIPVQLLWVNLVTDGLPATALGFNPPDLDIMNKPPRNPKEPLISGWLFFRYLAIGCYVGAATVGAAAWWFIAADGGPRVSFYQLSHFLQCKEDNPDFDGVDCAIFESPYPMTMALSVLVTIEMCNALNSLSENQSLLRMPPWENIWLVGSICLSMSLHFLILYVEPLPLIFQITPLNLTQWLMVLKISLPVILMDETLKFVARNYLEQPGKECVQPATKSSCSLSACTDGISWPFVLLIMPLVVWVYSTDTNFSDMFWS

Target: T1, endogenous mouse SERCA2b (ATP2a2) (mouse, UniProt O55143 1-1044)
T1 construct: also called endogenous SERCA2b
Assay: IP (anti-FLAG then anti-Myc) and LC-MS/MS, MH-S cell lysate

B1: endogenous MFSD7C of mouse bone marrow-derived macrophages (other, UniProt Q91X85 1-551, looked up)
chain: MVNESLNQEESNDRPAPESEFQMDTSYSTQPSGSIHPSVSGHPSVSGHPSVSGHPSVSIHPSVSIDPSVSVRPSSSALPSTLAQPSGLTHHSSLVREDSVIKVSKRRWVVVLVFSCYSLCNAFQWIQYGSINNIFMNFYGVSAFAIDWLSMCYMLTYIPLLLPVAWMLEKFGLRTIAITGSALNCLGAWVKLGSLEPHLFPVTMVGQVICSVAQVFILGMPSRIASVWFGADEVSTACSVAVFGNQLGIAIGFLVPPVLVPNIKDPEKLAYHISIMFYIIGGVATFLFILVIIVFKEKPKHPPSRAQSLSYALATTDASYLSSIVRLFKNLNFVLLVITYGLNAGAFYALSTLLNRMVILHFPGEEVNAGRIGLTIVIAGMFGAMISGIWLDKSKTYKETTLVVYIMTLVGMVVYTFTLNLNHLWVVFITAGTLGFFMTGYLPLGFEFAVELTYPESEGVSSGLLNVSAQVFGIVFTISQGQIIDNHGTMFGNIFLCVFLALGSALTAFIKSDLRRQRANKDAPETKVQEEEEEEEGSNTSKVPVVSEAHL
binding: binds
